Measurements as given in paper doi:10.1101/2024.09.30.615666.

Sequences of proteins named here, by UniProt entry; tags and fusion partners are left off.
UniProt P49790: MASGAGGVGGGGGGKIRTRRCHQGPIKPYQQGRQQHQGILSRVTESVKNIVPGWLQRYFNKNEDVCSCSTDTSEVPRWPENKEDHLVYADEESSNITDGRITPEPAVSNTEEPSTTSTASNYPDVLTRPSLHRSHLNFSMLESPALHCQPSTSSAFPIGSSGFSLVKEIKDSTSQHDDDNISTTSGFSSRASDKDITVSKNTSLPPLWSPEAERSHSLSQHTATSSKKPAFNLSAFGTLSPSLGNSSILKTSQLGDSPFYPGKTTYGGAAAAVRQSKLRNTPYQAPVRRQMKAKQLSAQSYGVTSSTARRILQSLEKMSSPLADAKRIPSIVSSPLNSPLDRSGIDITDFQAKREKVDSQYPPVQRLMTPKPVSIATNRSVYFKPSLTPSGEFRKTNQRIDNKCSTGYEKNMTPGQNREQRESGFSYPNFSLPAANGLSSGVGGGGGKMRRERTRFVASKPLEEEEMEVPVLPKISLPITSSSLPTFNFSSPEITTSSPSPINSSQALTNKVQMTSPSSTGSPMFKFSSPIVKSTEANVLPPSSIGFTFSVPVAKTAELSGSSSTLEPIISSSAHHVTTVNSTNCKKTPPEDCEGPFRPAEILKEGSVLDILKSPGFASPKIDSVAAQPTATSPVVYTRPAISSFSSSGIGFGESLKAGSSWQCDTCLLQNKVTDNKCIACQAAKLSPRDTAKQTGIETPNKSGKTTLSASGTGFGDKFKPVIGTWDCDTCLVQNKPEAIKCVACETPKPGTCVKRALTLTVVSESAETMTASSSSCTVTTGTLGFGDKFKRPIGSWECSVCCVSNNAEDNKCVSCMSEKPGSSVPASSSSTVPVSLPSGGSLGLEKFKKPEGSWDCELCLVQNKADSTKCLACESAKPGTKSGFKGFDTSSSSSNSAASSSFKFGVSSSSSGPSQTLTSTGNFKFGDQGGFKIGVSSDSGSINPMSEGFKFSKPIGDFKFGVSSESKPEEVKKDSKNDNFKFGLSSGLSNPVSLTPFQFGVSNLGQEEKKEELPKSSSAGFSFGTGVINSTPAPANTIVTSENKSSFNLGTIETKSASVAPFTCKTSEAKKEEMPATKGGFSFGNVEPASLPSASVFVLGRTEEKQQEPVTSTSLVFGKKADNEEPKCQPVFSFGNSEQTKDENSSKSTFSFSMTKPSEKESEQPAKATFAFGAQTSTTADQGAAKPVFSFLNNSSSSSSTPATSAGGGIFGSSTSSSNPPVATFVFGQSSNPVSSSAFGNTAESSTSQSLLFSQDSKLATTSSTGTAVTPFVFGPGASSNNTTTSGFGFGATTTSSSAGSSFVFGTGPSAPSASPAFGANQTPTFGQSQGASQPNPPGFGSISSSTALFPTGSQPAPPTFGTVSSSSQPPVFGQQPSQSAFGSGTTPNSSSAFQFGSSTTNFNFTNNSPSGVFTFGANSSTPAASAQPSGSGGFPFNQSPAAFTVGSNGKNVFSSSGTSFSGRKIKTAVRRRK
UniProt P12270: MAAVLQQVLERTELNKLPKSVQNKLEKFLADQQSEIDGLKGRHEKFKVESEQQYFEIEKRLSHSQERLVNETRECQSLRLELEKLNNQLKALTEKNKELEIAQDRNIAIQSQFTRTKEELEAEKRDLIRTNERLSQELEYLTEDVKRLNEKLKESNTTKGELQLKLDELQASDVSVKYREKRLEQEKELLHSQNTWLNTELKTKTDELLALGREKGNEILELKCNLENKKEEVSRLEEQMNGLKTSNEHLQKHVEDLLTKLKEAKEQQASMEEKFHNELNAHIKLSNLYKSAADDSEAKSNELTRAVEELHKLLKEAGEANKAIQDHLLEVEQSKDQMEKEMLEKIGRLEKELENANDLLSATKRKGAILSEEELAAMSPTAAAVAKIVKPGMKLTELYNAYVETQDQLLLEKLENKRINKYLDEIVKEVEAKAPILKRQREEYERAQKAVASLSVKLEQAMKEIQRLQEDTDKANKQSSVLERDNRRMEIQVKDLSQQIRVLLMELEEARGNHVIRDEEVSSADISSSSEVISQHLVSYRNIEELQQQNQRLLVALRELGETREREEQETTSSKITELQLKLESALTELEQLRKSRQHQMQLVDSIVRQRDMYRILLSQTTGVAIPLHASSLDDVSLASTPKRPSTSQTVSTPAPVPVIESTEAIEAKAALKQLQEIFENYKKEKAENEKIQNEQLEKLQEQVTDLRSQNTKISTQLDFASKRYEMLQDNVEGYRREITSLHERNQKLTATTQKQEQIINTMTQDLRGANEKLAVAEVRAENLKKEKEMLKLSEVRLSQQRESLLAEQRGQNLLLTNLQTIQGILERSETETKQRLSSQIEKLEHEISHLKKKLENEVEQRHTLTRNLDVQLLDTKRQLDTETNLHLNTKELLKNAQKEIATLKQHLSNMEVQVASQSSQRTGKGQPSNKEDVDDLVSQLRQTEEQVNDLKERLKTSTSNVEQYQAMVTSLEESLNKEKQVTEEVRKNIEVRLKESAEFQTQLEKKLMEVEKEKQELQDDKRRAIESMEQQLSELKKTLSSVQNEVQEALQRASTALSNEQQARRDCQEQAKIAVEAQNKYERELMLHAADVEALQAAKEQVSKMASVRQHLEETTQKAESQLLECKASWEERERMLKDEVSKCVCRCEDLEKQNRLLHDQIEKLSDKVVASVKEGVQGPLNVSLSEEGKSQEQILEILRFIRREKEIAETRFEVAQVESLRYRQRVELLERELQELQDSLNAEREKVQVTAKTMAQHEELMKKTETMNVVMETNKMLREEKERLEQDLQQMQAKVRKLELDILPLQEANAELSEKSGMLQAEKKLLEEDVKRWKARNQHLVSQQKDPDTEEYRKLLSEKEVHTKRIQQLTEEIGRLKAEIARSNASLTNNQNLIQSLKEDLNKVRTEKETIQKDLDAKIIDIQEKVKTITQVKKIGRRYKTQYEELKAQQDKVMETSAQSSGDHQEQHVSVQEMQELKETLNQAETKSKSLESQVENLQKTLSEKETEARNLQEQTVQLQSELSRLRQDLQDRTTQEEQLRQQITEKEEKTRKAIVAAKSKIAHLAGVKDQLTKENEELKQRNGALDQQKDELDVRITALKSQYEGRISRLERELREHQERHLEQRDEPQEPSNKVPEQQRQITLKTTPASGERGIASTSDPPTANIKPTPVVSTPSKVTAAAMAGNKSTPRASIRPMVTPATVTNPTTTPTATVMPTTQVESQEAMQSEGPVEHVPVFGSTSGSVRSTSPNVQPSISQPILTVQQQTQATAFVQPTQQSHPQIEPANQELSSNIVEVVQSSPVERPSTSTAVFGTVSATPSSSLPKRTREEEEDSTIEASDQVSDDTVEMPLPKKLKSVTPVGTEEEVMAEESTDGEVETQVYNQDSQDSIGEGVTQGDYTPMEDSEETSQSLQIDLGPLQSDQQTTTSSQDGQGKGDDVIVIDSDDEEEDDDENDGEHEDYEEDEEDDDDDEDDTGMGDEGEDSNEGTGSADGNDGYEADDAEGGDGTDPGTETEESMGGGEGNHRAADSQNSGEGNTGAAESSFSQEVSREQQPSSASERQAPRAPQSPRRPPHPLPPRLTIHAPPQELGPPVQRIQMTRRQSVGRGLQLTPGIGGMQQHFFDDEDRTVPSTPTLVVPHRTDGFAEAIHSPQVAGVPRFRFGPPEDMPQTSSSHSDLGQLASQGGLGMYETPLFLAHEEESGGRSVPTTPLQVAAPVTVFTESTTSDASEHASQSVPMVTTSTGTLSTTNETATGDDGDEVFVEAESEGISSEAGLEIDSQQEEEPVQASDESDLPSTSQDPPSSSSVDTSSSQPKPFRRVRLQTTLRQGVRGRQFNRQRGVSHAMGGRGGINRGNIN
UniProt P50750: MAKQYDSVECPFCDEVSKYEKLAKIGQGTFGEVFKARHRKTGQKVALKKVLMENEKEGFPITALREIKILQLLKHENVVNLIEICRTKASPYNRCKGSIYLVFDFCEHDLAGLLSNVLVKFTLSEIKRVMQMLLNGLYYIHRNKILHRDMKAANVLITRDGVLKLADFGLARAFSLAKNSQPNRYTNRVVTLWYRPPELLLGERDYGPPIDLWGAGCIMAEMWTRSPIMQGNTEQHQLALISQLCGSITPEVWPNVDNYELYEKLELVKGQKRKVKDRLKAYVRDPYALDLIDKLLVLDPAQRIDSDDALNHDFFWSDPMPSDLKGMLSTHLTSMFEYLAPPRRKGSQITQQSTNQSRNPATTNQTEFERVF
UniProt Q9UNP9: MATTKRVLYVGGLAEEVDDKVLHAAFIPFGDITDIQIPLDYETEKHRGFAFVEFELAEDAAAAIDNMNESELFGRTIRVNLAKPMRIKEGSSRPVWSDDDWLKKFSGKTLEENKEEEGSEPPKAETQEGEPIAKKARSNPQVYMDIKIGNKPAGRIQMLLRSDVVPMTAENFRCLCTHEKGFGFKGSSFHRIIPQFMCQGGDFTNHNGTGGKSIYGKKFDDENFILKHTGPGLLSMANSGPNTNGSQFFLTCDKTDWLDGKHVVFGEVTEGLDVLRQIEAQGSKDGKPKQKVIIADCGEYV
UniProt P35637: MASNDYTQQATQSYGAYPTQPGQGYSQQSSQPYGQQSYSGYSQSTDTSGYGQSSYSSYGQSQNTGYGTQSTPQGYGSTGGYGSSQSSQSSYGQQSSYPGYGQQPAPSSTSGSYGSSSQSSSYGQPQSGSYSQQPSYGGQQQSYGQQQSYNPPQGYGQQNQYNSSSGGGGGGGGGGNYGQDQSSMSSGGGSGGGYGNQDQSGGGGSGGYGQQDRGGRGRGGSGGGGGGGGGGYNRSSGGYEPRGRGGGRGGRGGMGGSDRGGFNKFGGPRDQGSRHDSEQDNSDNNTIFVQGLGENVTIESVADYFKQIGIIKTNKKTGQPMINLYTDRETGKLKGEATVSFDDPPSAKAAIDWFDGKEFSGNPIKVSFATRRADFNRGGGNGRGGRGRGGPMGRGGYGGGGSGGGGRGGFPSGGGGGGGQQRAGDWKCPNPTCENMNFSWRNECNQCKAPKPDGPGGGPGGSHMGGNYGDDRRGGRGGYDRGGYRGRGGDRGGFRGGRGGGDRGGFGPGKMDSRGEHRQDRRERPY
UniProt Q8TEQ6: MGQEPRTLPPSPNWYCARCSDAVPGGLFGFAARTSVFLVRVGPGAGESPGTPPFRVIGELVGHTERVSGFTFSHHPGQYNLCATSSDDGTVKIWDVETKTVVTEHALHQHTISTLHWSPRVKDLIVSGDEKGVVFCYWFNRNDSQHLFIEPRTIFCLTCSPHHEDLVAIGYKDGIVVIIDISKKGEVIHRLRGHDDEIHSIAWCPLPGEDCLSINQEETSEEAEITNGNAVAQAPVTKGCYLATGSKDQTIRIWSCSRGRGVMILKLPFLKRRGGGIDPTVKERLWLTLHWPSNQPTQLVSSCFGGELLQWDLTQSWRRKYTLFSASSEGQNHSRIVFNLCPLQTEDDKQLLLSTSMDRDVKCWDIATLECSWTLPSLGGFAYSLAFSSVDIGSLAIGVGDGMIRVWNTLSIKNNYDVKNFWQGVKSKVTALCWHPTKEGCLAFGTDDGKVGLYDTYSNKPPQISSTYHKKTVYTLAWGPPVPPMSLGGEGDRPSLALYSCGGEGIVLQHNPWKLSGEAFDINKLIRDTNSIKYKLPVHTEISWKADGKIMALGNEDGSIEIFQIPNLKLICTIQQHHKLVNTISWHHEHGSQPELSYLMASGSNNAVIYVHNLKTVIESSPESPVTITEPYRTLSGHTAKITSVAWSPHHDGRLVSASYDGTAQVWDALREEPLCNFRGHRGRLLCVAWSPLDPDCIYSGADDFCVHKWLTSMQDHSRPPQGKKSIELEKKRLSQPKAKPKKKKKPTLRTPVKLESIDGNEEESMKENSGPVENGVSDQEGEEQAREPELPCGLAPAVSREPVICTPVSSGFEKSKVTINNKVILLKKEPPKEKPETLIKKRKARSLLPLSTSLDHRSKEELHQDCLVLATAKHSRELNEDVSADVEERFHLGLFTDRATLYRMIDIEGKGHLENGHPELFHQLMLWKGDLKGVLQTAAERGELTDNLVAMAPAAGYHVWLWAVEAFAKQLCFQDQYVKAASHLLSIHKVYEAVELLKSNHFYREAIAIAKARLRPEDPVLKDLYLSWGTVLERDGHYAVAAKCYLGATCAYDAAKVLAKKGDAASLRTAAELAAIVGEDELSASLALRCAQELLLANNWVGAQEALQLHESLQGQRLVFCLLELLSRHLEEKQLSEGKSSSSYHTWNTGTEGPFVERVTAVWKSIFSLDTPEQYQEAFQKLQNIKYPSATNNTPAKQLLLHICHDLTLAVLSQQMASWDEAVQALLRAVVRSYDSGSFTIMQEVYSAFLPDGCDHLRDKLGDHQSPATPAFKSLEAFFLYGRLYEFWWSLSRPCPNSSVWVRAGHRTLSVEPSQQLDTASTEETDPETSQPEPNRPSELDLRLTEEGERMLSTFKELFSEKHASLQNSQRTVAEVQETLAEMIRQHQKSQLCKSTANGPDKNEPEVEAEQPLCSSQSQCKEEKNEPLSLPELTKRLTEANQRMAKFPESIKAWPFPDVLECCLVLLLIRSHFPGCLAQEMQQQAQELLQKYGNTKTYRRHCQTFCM

How the values were obtained:
[1] = biological target: Nup153-BirA (UniProt P49790); assay: proximity labelling
[2] = biological target: TPR-BiraA (UniProt P12270); assay: proximity labelling

Molecule	binding [1]	binding [2]
CDK9 (from UniProt P50750 1-372)	binds	binds
IPO5 (from UniProt O00410 1-1097)	binds	binds
Med1 (from UniProt Q15648 1-1581)	binds	binds
PPIE (from UniProt Q9UNP9 1-301)	binds	binds
TADA3 (from UniProt O75528 1-432)	binds	binds
TAF9b (from UniProt Q9HBM6 1-251)	binds	binds
TNPO1 (from UniProt Q92973 1-898)	binds	binds
XAB2 (protein, UniProt Q9HCS7 1-855) MVVMARLSRPERPDLVFEEEDLPYEEEIMRNQFSVKCWLRYIEFKQGAPKPRLNQLYERALKLLPCSYKLWYRYLKARRAQVKHRCVTDPAYEDVNNCHERAFVFMHKMPRLWLDYCQFLMDQGRVTHTRRTFDRALRALPITQHSRIWPLYLRFLRSHPLPETAVRGYRRFLKLSPESAEEYIEYLKSSDRLDEAAQRLATVVNDERFVSKAGKSNYQLWHELCDLISQNPDKVQSLNVDAIIRGGLTRFTDQLGKLWCSLADYYIRSGHFEKARDVYEEAIRTVMTVRDFTQVFDSYAQFEESMIAAKMETASELGREEEDDVDLELRLARFEQLISRRPLLLNSVLLRQNPHHVHEWHKRVALHQGRPREIINTYTEAVQTVDPFKATGKPHTLWVAFAKFYEDNGQLDDARVILEKATKVNFKQVDDLASVWCQCGELELRHENYDEALRLLRKATALPARRAEYFDGSEPVQNRVYKSLKVWSMLADLEESLGTFQSTKAVYDRILDLRIATPQIVINYAMFLEEHKYFEESFKAYERGISLFKWPNVSDIWSTYLTKFIARYGGRKLERARDLFEQALDGCPPKYAKTLYLLYAQLEEEWGLARHAMAVYERATRAVEPAQQYDMFNIYIKRAAEIYGVTHTRGIYQKAIEVLSDEHAREMCLRFADMECKLGEIDRARAIYSFCSQICDPRTTGAFWQTWKDFEVRHGNEDTIKEMLRIRRSVQATYNTQVNFMASQMLKVSGSATGTVSDLAPGQSGMDDMKLLEQRAEQLAAEAERDQPLRAQSKILFVRSDASREELAELAQQVNPEEIQLGEDEDEDEMDLEPNEVRLEQQSVPAAVFGSLKED	binds	binds
ISY1 (protein, UniProt Q9ULR0 1-285) MARNAEKAMTALARFRQAQLEEGKVKERRPFLASECTELPKAEKWRRQIIGEISKKVAQIQNAGLGEFRIRDLNDEINKLLREKGHWEVRIKELGGPDYGKVGPKMLDHEGKEVPGNRGYKYFGAAKDLPGVRELFEKEPLPPPRKTRAELMKAIDFEYYGYLDEDDGVIVPLEQEYEKKLRAELVEKWKAEREARLARGEKEEEEEEEEEINIYAVTEEESDEEGSQEKGGDDSQQKFIAHVPVPSQQEIEEALVRRKKMELLQKYASETLQAQSEEARRLLGY	binds	binds
DDX42 (protein, UniProt Q86XP3 1-938) MNWNKGGPGTKRGFGFGGFAISAGKKEEPKLPQQSHSAFGATSSSSGFGKSAPPQLPSFYKIGSKRANFDEENAYFEDEEEDSSNVDLPYIPAENSPTRQQFHSKPVDSDSDDDPLEAFMAEVEDQAARDMKRLEEKDKERKNVKGIRDDIEEEDDQEAYFRYMAENPTAGVVQEEEEDNLEYDSDGNPIAPTKKIIDPLPPIDHSEIDYPPFEKNFYNEHEEITNLTPQQLIDLRHKLNLRVSGAAPPRPGSSFAHFGFDEQLMHQIRKSEYTQPTPIQCQGVPVALSGRDMIGIAKTGSGKTAAFIWPMLIHIMDQKELEPGDGPIAVIVCPTRELCQQIHAECKRFGKAYNLRSVAVYGGGSMWEQAKALQEGAEIVVCTPGRLIDHVKKKATNLQRVSYLVFDEADRMFDMGFEYQVRSIASHVRPDRQTLLFSATFRKKIEKLARDILIDPIRVVQGDIGEANEDVTQIVEILHSGPSKWNWLTRRLVEFTSSGSVLLFVTKKANAEELANNLKQEGHNLGLLHGDMDQSERNKVISDFKKKDIPVLVATDVAARGLDIPSIKTVINYDVARDIDTHTHRIGRTGRAGEKGVAYTLLTPKDSNFAGDLVRNLEGANQHVSKELLDLAMQNAWFRKSRFKGGKGKKLNIGGGGLGYRERPGLGSENMDRGNNNVMSNYEAYKPSTGAMGDRLTAMKAAFQSQYKSHFVAASLSNQKAGSSAAGASGWTSAGSLNSVPTNSAQQGHNSPDSPVTSAAKGIPGFGNTGNISGAPVTYPSAGAQGVNNTASGNNSREGTGGSNGKRERYTENRGSSRHSHGETGNRHSDSPRHGDGGRHGDGYRHPESSSRHTDGHRHGENRHGGSAGRHGENRGANDGRNGESRKEAFNRESKMEPKMEPKVDSSKMDKVDSKTDKTADGFAVPEPPKRKKSRWDS	binds	binds
AQR (protein, UniProt O60306 1-1485) MAAPAQPKKIVAPTVSQINAEFVTQLACKYWAPHIKKKSPFDIKVIEDIYEKEIVKSRFAIRKIMLLEFSQYLENYLWMNYSPEVSSKAYLMSICCMVNEKFRENVPAWEIFKKKPDHFPFFFKHILKAALAETDGEFSLHEQTVLLLFLDHCFNSLEVDLIRSQVQQLISLPMWMGLQLARLELELKKTPKLRKFWNLIKKNDEKMDPEAREQAYQERRFLSQLIQKFISVLKSVPLSEPVTMDKVHYCERFIELMIDLEALLPTRRWFNTILDDSHLLVHCYLSNLVRREEDGHLFSQLLDMLKFYTGFEINDQTGNALTENEMTTIHYDRITSLQRAAFAHFPELYDFALSNVAEVDTRESLVKFFGPLSSNTLHQVASYLCLLPTLPKNEDTTFDKEFLLELLVSRHERRISQIQQLNQMPLYPTEKIIWDENIVPTEYYSGEGCLALPKLNLQFLTLHDYLLRNFNLFRLESTYEIRQDIEDSVSRMKPWQSEYGGVVFGGWARMAQPIVAFTVVEVAKPNIGENWPTRVRADVTINLNVRDHIKDEWEGLRKHDVCFLITVRPTKPYGTKFDRRRPFIEQVGLVYVRGCEIQGMLDDKGRVIEDGPEPRPNLRGESRTFRVFLDPNQYQQDMTNTIQNGAEDVYETFNIIMRRKPKENNFKAVLETIRNLMNTDCVVPDWLHDIILGYGDPSSAHYSKMPNQIATLDFNDTFLSIEHLKASFPGHNVKVTVEDPALQIPPFRITFPVRSGKGKKRKDADVEDEDTEEAKTLIVEPHVIPNRGPYPYNQPKRNTIQFTHTQIEAIRAGMQPGLTMVVGPPGTGKTDVAVQIISNIYHNFPEQRTLIVTHSNQALNQLFEKIMALDIDERHLLRLGHGEEELETEKDFSRYGRVNYVLARRIELLEEVKRLQKSLGVPGDASYTCETAGYFFLYQVMSRWEEYISKVKNKGSTLPDVTEVSTFFPFHEYFANAPQPIFKGRSYEEDMEIAEGCFRHIKKIFTQLEEFRASELLRSGLDRSKYLLVKEAKIIAMTCTHAALKRHDLVKLGFKYDNILMEEAAQILEIETFIPLLLQNPQDGFSRLKRWIMIGDHHQLPPVIKNMAFQKYSNMEQSLFTRFVRVGVPTVDLDAQGRARASLCNLYNWRYKNLGNLPHVQLLPEFSTANAGLLYDFQLINVEDFQGVGESEPNPYFYQNLGEAEYVVALFMYMCLLGYPADKISILTTYNGQKHLIRDIINRRCGNNPLIGRPNKVTTVDRFQGQQNDYILLSLVRTRAVGHLRDVRRLVVAMSRARLGLYIFARVSLFQNCFELTPAFSQLTARPLHLHIIPTEPFPTTRKNGERPSHEVQIIKNMPQMANFVYNMYMHLIQTTHHYHQTLLQLPPAMVEEGEEVQNQETELETEEEAMTVQADIIPSPTDTSCRQETPAFQTDTTPSETGATSTPEAIPALSETTPTVVGAVSAPAEANTPQDATSAPEETK	binds	binds

The remaining lines, values ahead:

binding [1]	binding [2]	Molecule
binds	binds	DDX39b (from UniProt Q13838 1-428)
binds	binds	FUS (from UniProt P35637 1-526)
binds	binds	GEMIN5 (from UniProt Q8TEQ6 1-1508)
binds	binds	GPKOW (protein, UniProt Q92917 1-476) MADSKEGVLPLTAASTAPISFGFTRTSARRRLADSGDGAGPSPEEKDFLKTVEGRELQSVKPQEAPKELVIPLIQNGHRRQPPARPPGPSTDTGALADGVVSQAVKELIAESKKSLEERENAGVDPTLAIPMIQKGCTPSGEGADSEPRAETVPEEANYEAVPVEAYGLAMLRGMGWKPGEGIGRTFNQVVKPRVNSLRPKGLGLGANLTEAQALTPTGPSRMPRPDEEQEKDKEDQPQGLVPGGAVVVLSGPHRGLYGKVEGLDPDNVRAMVRLAVGSRVVTVSEYYLRPVSQQEFDKNTLDLRQQNGTASSRKTLWNQELYIQQDNSERKRKHLPDRQDGPAAKSEKAAPRSQHWLHRDLRVRFVDNMYKGGQYYNTKMIIEDVLSPDTCVCRTDEGRVLEGLREDMLETLVPKAEGDRVMVVLGPQTGRVGHLLSRDRARSRALVQLPRENQVVELHYDAICQYMGPSDTDDD
binds	binds	Nup35 (protein, UniProt Q8NFH5 1-326) MAAFAVEPQGPALGSEPMMLGSPTSPKPGVNAQFLPGFLMGDLPAPVTPQPRSISGPSVGVMEMRSPLLAGGSPPQPVVPAHKDKSGAPPVRSIYDDISSPGLGSTPLTSRRQPNISVMQSPLVGVTSTPGTGQSMFSPASIGQPRKTTLSPAQLDPFYTQGDSLTSEDHLDDSWVTVFGFPQASASYILLQFAQYGNILKHVMSNTGNWMHIRYQSKLQARKALSKDGRIFGESIMIGVKPCIDKSVMESSDRCALSSPSLAFTPPIKTLGTPTQPGSTPRISTMRPLATAYKASTSDYQVISDRQTPKKDESLVSKAMEYMFGW

Results are given in words; binding and its absence hold for the method and conditions named. In cells and extracts the contact can be indirect. Here binding means that the protein was enriched with, or labelled near, the bait; the list need not be complete.
